Experimental data published in article PMC8883650.
Results are given in words; binding and its absence hold for the method and conditions named. In cells and extracts the contact can be indirect. Some results given as binding are weak or reduced against the parent protein; the word gives no strength.

Sequences of proteins named here, by UniProt entry; tags and fusion partners are left off.
UniProt P01106: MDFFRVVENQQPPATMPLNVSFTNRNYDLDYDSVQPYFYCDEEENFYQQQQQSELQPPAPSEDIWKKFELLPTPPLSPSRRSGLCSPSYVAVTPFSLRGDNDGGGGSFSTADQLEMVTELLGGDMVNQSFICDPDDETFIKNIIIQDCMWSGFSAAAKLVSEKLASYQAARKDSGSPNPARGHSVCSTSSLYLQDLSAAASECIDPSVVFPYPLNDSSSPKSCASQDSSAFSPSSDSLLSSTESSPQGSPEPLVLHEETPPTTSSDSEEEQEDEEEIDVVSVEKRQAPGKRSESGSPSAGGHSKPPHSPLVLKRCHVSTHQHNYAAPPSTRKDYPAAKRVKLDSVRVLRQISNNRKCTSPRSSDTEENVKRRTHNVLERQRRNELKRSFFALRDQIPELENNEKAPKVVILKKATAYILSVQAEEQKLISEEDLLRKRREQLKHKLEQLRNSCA

Target: c-Myc (UniProt P01106)
Assay: co-IP; lysates of three NPC cell lines incubated with antibodies; enriched proteins examined by western blotting

binding: binds
B1: SERPINH1 (protein, UniProt P50454 19-418)
chain: AEVKKPAAAAAPGTAEKLSPKAATLAERSAGLAFSLYQAMAKDQAVENILVSPVVVASSLGLVSLGGKATTASQAKAVLSAEQLRDEEVHAGLGELLRSLSNSTARNVTWKLGSRLYGPSSVSFADDFVRSSKQHYNCEHSKINFRDKRSALQSINEWAAQTTDGKLPEVTKDVERTDGALLVNAMFFKPHWDEKFHHKMVDNRGFMVTRSYTVGVMMMHRTGLYNYYDDEKEKLQIVEMPLAHKLSSLIILMPHHVEPLERLEKLLTKEQLKIWMGKMQKKAVAISLPKGVVEVTHDLQKHLAGLGLTEAIDKNKADLSRMSGKKDLYLASVFHATAFELDTDGNPFDQDIYGREELRSPKLFYADHPFIFLVRDTQSGSLLFIGRLVRPKGDKMRDEL
